{"source": "PubChem BioAssay AID1259254 (NCATS, 2017)", "screen": "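Genome-wide screen for genes that prevent DNA re-replication in cancer cells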 (primary screen)", "cell system": "human HCT116 colorectal cancer cells", "reagent": "single siRNA against human genes", "time to read-out": "3 days", "measured": "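Nuclei stained with Hoechst and imaged; cell-cycle phase assigned by DNA content; G2 share scaled per plate, non-targeting siRNA 0%, GMNN siRNA 100%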", "scale": "G2 robust z-score: higher = more G2 cells, more excess DNA replication", "active means": "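An siRNA counts as active if its G2 robust z-score lies at least 5 MADs above the screen median; here such calls match roughly 38% of GMNN control or more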", "note": "This is an unselected part of about 59,000 deposited reagents. About 1,550 of them (2.6%) were called active. 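G2 share is only a proxy for re-replication; each gene was hit by three separate siRNAs, and active genes were retested.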 Reagents against one gene are numbered here. Further read-outs or replicates are left out here. No sequences are given here. Not given: the amount of reagent."}
{"target gene":"GNG5 (G protein subunit gamma 5)","siRNA no.":1,"G2 robust z-score":-0.26,"call":"inactive"}
{"target gene":"GNG5 (G protein subunit gamma 5)","siRNA no.":2,"G2 robust z-score":-1.01,"call":"inactive"}
{"target gene":"GNG5 (G protein subunit gamma 5)","siRNA no.":3,"G2 robust z-score":1.96,"call":"inactive"}
{"target gene":"ODAD2 (outer dynein arm docking complex subunit 2)","siRNA no.":1,"G2 robust z-score":-0.517,"call":"inactive"}
{"target gene":"ODAD2 (outer dynein arm docking complex subunit 2)","siRNA no.":2,"G2 robust z-score":0.945,"call":"inactive"}
{"target gene":"ODAD2 (outer dynein arm docking complex subunit 2)","siRNA no.":3,"G2 robust z-score":-0.634,"call":"inactive"}
{"target gene":"EFNA4 (ephrin A4)","siRNA no.":1,"G2 robust z-score":-0.201,"call":"inactive"}
{"target gene":"EFNA4 (ephrin A4)","siRNA no.":2,"G2 robust z-score":0.667,"call":"inactive"}
{"target gene":"EFNA4 (ephrin A4)","siRNA no.":3,"G2 robust z-score":1.82,"call":"inactive"}
{"target gene":"BCAS2 (BCAS2 pre-mRNA processing factor)","siRNA no.":1,"G2 robust z-score":-0.722,"call":"inactive"}
{"target gene":"BCAS2 (BCAS2 pre-mRNA processing factor)","siRNA no.":2,"G2 robust z-score":-0.496,"call":"inactive"}
{"target gene":"BCAS2 (BCAS2 pre-mRNA processing factor)","siRNA no.":3,"G2 robust z-score":0.771,"call":"inactive"}

Quoted from the listing for reference:
{"target gene":"ODAD2 (outer dynein arm docking complex subunit 2)","siRNA no.":3,"G2 robust z-score":-0.634,"call":"inactive"}
{"target gene":"EFNA4 (ephrin A4)","siRNA no.":1,"G2 robust z-score":-0.201,"call":"inactive"}
{"target gene":"EFNA4 (ephrin A4)","siRNA no.":2,"G2 robust z-score":0.667,"call":"inactive"}
{"target gene":"EFNA4 (ephrin A4)","siRNA no.":3,"G2 robust z-score":1.82,"call":"inactive"}

The listing continues.
{"target gene":"CD27 (CD27 molecule)","siRNA no.":1,"G2 robust z-score":1.86,"call":"inactive"}
{"target gene":"CD27 (CD27 molecule)","siRNA no.":2,"G2 robust z-score":-1.01,"call":"inactive"}
{"target gene":"CD27 (CD27 molecule)","siRNA no.":3,"G2 robust z-score":1.01,"call":"inactive"}
{"target gene":"CTBP1-DT (CTBP1 divergent transcript)","siRNA no.":1,"G2 robust z-score":0.596,"call":"inactive"}
{"target gene":"CTBP1-DT (CTBP1 divergent transcript)","siRNA no.":2,"G2 robust z-score":0.7,"call":"inactive"}
{"target gene":"CTBP1-DT (CTBP1 divergent transcript)","siRNA no.":3,"G2 robust z-score":0.03,"call":"inactive"}
{"target gene":"KRTAP12-3 (keratin associated protein 12-3)","siRNA no.":1,"G2 robust z-score":-0.432,"call":"inactive"}
{"target gene":"KRTAP12-3 (keratin associated protein 12-3)","siRNA no.":2,"G2 robust z-score":-0.282,"call":"inactive"}
{"target gene":"KRTAP12-3 (keratin associated protein 12-3)","siRNA no.":3,"G2 robust z-score":6.21,"call":"active"}
{"target gene":"OR7A5 (olfactory receptor family 7 subfamily A member 5)","siRNA no.":1,"G2 robust z-score":0.445,"call":"inactive"}
{"target gene":"OR7A5 (olfactory receptor family 7 subfamily A member 5)","siRNA no.":2,"G2 robust z-score":3.77,"call":"inactive"}
{"target gene":"OR7A5 (olfactory receptor family 7 subfamily A member 5)","siRNA no.":3,"G2 robust z-score":2.68,"call":"inactive"}
{"target gene":"CD46 (CD46 molecule)","siRNA no.":1,"G2 robust z-score":-0.433,"call":"inactive"}
{"target gene":"CD46 (CD46 molecule)","siRNA no.":2,"G2 robust z-score":-0.761,"call":"inactive"}
{"target gene":"CD46 (CD46 molecule)","siRNA no.":3,"G2 robust z-score":0.723,"call":"inactive"}
{"target gene":"TSPAN13 (tetraspanin 13)","siRNA no.":1,"G2 robust z-score":-0.377,"call":"inactive"}
{"target gene":"TSPAN13 (tetraspanin 13)","siRNA no.":2,"G2 robust z-score":-0.368,"call":"inactive"}
{"target gene":"TSPAN13 (tetraspanin 13)","siRNA no.":3,"G2 robust z-score":-0.106,"call":"inactive"}
